The values below come from paper PMC6521028.

No constants are given. Whether binding was seen depends on the method and setting. In cells and extracts the contact can be indirect. For some of these results: A result given as binding can be weak or reduced; the word gives no strength. Tags and fused reporters may be left off the sequences shown.

For assay [1], the target named is T1, Flag-tagged porcine IRF3 (pIRF3) (porcine) (UniProt Q764M6).
T1 sequence: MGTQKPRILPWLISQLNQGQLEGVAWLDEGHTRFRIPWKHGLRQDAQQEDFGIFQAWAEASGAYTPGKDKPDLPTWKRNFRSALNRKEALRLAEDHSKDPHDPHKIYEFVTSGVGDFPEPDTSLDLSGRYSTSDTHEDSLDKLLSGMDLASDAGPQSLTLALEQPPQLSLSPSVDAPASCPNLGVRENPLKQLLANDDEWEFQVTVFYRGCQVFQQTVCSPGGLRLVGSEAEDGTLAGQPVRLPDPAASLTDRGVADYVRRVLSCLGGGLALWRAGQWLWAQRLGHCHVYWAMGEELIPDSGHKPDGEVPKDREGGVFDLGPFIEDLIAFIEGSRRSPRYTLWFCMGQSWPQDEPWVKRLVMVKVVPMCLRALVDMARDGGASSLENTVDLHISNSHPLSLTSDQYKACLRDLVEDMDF
Put plainly: co-IP; HEK293T cells cotransfected for 28 h; lysis buffer 50 mM Tris-HCl pH 7.4, 150 mM NaCl, 1% NP-40, 10% glycerin, 0.1% SDS, 2 mM Na2EDTA; precipitated at 4°C with anti-Flag affinity gel; western blot. Background: Immunoblotting shows a protein as a band on a membrane.

Assay [2] has as its target T2, HA-tagged porcine Riplet (pRiplet) (porcine) (UniProt F1RKW3).
T2 sequence: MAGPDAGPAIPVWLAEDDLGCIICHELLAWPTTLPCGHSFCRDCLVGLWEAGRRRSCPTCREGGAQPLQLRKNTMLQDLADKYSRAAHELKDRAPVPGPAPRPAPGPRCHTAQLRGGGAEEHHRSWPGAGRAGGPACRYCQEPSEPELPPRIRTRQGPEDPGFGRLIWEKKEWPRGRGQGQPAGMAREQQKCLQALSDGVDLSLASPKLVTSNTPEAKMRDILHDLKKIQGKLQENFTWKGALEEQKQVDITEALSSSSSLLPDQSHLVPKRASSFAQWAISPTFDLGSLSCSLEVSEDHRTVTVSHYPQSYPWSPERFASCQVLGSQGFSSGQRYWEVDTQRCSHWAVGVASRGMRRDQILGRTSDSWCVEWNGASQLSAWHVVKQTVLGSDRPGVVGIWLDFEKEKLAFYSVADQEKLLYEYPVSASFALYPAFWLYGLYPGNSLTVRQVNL
The experiment in a line: co-IP; HEK293T cells cotransfected for 28 h; same lysis buffer; precipitated at 4°C with anti-HA affinity gel; western blot.

For assay [3], the target named is Myc-tagged PDCoV nucleocapsid (N) protein (porcine deltacoronavirus (PDCoV)). Put plainly: co-IP; HEK293T cells cotransfected for 28 h; same lysis buffer; precipitated with mouse Myc monoclonal antibody and protein A+G agarose beads; western blot.
Assay [4] concerns the target Flag-pRIG-I-CTD (internal repressor domain, RD) (porcine). Put plainly: co-IP; HEK293T cells cotransfected for 28 h; lysis buffer 50 mM Tris-HCl pH 7.4, 150 mM NaCl, 1% NP-40, 10% glycerin, 0.1% SDS, 2 mM Na2EDTA; precipitated at 4°C with anti-Flag affinity gel; western blot.

For “HA-tagged PDCoV nucleocapsid (N) protein (porcine deltacoronavirus (PDCoV))”, the binding entry in assay [1] is “no binding”. As for “Myc-tagged PDCoV nucleocapsid (N) protein (porcine deltacoronavirus (PDCoV))”, in assay [2], the binding entry is reported as “no binding”.

B1: HA-tagged porcine Riplet (pRiplet) (protein, UniProt F1RKW3 1-454)
chain: T2 sequence
Consider B1, for which the binding entry is reported as “no binding” in assay [3] and “binds” in assay [4].
